PubChem BioAssay AID686938 | Drosophila RNAi Screening Center – 2013
Screen: 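Knock-downs reducing store-operated calcium influx in Drosophila cells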 (primary screen). Cells: Drosophila S2R+ cells. Knock-down reagent: long dsRNA against Drosophila genes, about 0.25 µg dsRNA per well, roughly 10,000 cells. Timing: 5 days of knock-down before the calcium assay. Challenge: thapsigargin (SERCA pump blocker) to empty calcium stores; entry signal taken 4 min after adding it. Measurement: 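Duplicate raw fluo-4 intensities per well from a plate reader, at rest and four minutes after thapsigargin emptied calcium stores; entry-to-rest ratio filled for only some wells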. Direction: calcium entry signal: higher = stronger calcium signal after store depletion; resting calcium signal: higher = higher resting calcium signal. Units: calcium entry signal in fluorescence units; resting calcium signal in fluorescence units. Active means: 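Called when the plate z-score of the entry-to-rest ratio, mean of duplicates, falls below −3; wells with low overall dye signal (Fmax z below −2) or more than five off-targets excluded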. Calls: active = strongly reduced calcium entry; inactive = no strong reduction.
In all, the deposit lists about 23,000 reagents; below is an unselected part of those with a known target gene and a result. Of all reagents, 75 (0.33%) were called active. 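Raw plate signals without normalisation; calls rest on plate z-scores that were not deposited; ratio present for only 364 wells.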 The record does not give: the dose of the treatment.

CG13747
- calcium entry signal, replicate 1: 4.61e7
- calcium entry signal, replicate 2: 3.42e7
- resting calcium signal, replicate 1: 1.87e7
- resting calcium signal, replicate 2: 1.57e7
- call: inactive

CG6511
- calcium entry signal, replicate 1: 3.57e7
- calcium entry signal, replicate 2: 5.41e7
- resting calcium signal, replicate 1: 1.69e7
- resting calcium signal, replicate 2: 2.45e7
- call: inactive

CG11342
- calcium entry signal, replicate 1: 2.07e7
- calcium entry signal, replicate 2: 3.26e7
- resting calcium signal, replicate 1: 9.76e6
- resting calcium signal, replicate 2: 1.26e7
- call: inactive

BCAS2
- calcium entry signal, replicate 1: 4.44e7
- calcium entry signal, replicate 2: 5.69e7
- resting calcium signal, replicate 1: 2.06e7
- resting calcium signal, replicate 2: 2.48e7
- call: inactive

Mms19
- calcium entry signal, replicate 1: 2.69e7
- calcium entry signal, replicate 2: 2.67e7
- resting calcium signal, replicate 1: 1.18e7
- resting calcium signal, replicate 2: 1.29e7
- call: inactive

Indy
- calcium entry signal, replicate 1: 4.10e7
- calcium entry signal, replicate 2: 4.49e7
- resting calcium signal, replicate 1: 1.98e7
- resting calcium signal, replicate 2: 3.12e7
- call: inactive

CG6149
- calcium entry signal, replicate 1: 3.13e7
- calcium entry signal, replicate 2: 4.33e7
- resting calcium signal, replicate 1: 1.67e7
- resting calcium signal, replicate 2: 1.82e7
- call: inactive

ValRS
- calcium entry signal, replicate 1: 3.68e7
- calcium entry signal, replicate 2: 2.70e7
- resting calcium signal, replicate 1: 1.71e7
- resting calcium signal, replicate 2: 1.37e7
- call: inactive

CG30274
- calcium entry signal, replicate 1: 4.05e7
- calcium entry signal, replicate 2: 4.32e7
- resting calcium signal, replicate 1: 2.14e7
- resting calcium signal, replicate 2: 2.05e7
- call: inactive

CG31752
- calcium entry signal, replicate 1: 3.62e7
- calcium entry signal, replicate 2: 3.84e7
- resting calcium signal, replicate 1: 2.12e7
- resting calcium signal, replicate 2: 1.80e7
- call: inactive

HtrA2
- calcium entry signal, replicate 1: 2.54e7
- calcium entry signal, replicate 2: 5.25e7
- resting calcium signal, replicate 1: 1.31e7
- resting calcium signal, replicate 2: 7.00e7
- call: inactive

CG14232
- calcium entry signal, replicate 1: 2.78e7
- calcium entry signal, replicate 2: 2.44e7
- resting calcium signal, replicate 1: 1.70e7
- resting calcium signal, replicate 2: 1.19e7
- call: inactive
